# Laboratory results from PubChem BioAssay (NCATS).
# Inconclusive means that the source gave no clear call. Such entries were picked first, then a sample of the others. A potency beside an inconclusive call is a rough fit, not a confirmed value. Activity calls are given as the source filed them. Calls come from the whole dose curve; as a rule, active = well fitted cell-killing curve with a large enough effect; inconclusive = small, poorly fitted or top-dose-only effect, or effect the other way; inactive = no such curve, though single readings can be large or run the other way. Where a SMILES comes first, the peptide text is derived from it. [ ]: non-standard residue; d: D form. The star is where a group is joined. Nva = CCC[C@H](N)C(=O)O; Cbz = O=C(OCc1ccccc1)*
# Assay: Quantitative High-Throughput drug screen in 47 multiple myeloma cell lines against the NCATS MIPE library collection: ARP1_JJKsccF8 cell viability assay (AID 1918928; note: nearly all actives have a fitted effect of over 40% in size)
# Conditions: ARP1 myeloma cells viability, CellTiter-Glo ATP, 48 h; viability: at 45.8 µM (top of the series)
# How it was run: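 Viability screen: myeloma cells (500/well) incubated 48 h at 37 °C, humidified 5% CO2, with pinned library compounds; CellTiter-Glo added, luminescence read; DMSO wells set 100%, medium-only wells 0%.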
# Potency is the fitted concentration of half-maximal effect.
Structure (SMILES),Potency,viability
c1cncc(CN2CCC(n3ncc4c(N5CCOCC5)nc(-c5ccc6[nH]ccc6c5)nc43)CC2)c1,active: 3.32 µM,–
Cn1cc(-c2ccc3nnc(Sc4ccc5ncccc5c4)n3n2)cn1,"inconclusive: 29.6 µM [cytotoxic, partial curve, poor fit]",–
O=C(Nc1nnc(-c2ccco2)o1)c1cc(-c2ccccc2)nc2ccccc12,"inconclusive: 20.9 µM [cytotoxic, partial curve]",–
C=C1CCC2[C@](C)(CO)C(O)CC[C@]2(C)C1CC=C1C(=O)OCC1O (some centres not stated),–,inactive: 113% [at 92.2 µM]
CC(C)(CO)[C@@H](O)C(=O)NCCC(=O)O,active: 1.66 µM,–
O=C(O)CCNC(=O)c1ccc(N=Nc2ccc(O)c(C(=O)O)c2)cc1,–,inactive: 94.8%
CCC[C@@H](C=O)NC(=O)[C@H](CC(C)C)NC(=O)[C@H](CC(C)C)NC(=O)OCc1ccccc1 (Cbz-Leu-Leu-[Nva]-aldehyde),"inconclusive: 0.118 µM [cytotoxic, full curve, poor fit]",–
O=C(Nc1cccc(Cl)c1)Nc1ncc(CCNc2ncnc3ccsc23)s1,"inconclusive: 4.18 µM [cytotoxic, full curve, poor fit]",–
O=S(=O)(NCCNCC=Cc1ccc(Br)cc1)c1cccc2cnccc12,active: 16.6 µM,–
Cc1ccc(NC(=O)c2cccc(C(C)(C)C#N)c2)cc1Nc1ccc2ncn(C)c(=O)c2c1,"inconclusive: 16.6 µM [cytotoxic, partial curve]",–
CCC1(C)CC(=O)NC1=O (configuration not stated),–,inactive: 106%
CN1CCCN(C(=O)c2cccc(-c3ccc(C=C4C(=O)Nc5ccc(Cl)cc54)o3)c2)CC1,active: 16.6 µM,–
Cc1n[nH]c(C)c1Cc1sc2c(c1C(=O)N1C[C@H](O)CO1)c(=O)n(C)c(=O)n2CC(C)C,–,inactive: 115%
CC(Cc1ccc(O)c(O)c1)(NN)C(=O)O (configuration not stated),"inconclusive: 33.2 µM [cytotoxic, single point]",–
Cc1cc(OCCCS(C)(=O)=O)cc(C)c1-c1cccc(COc2ccc3c(c2)OC[C@H]3CC(=O)O)c1,"inconclusive: 10.5 µM [cytotoxic, partial curve, poor fit]",–
CCc1cncnc1N1CCN(Cc2nc3ccc(C(F)(F)F)cc3[nH]2)CC1,"inconclusive: 16.6 µM [cytotoxic, partial curve, poor fit]",–
CCC(C)(C)c1ccc(CC(C)CN2C[C@@H](C)O[C@@H](C)C2)cc1 (some centres not stated),"inconclusive: 33.2 µM [cytotoxic, single point]",–

# Assay: Quantitative High-Throughput drug screen in 47 multiple myeloma cell lines against the NCATS MIPE library collection: ARD_JJKsccE7 cell viability assay (AID 1918929)
# Conditions: ARD myeloma cell line viability, CellTiter-Glo, 48 h; viability: at 45.8 µM (top of the series)
# How it was run: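 CellTiter-Glo luminescence (ATP) after 48 h compound exposure, 37C/5% CO2; 500 cells/well; MIPE 4.0 approved/investigational drugs pinned in; DMSO = 100%, media only = 0% viability.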
Structure (SMILES),Potency,viability
CC=CC1=C(C(=O)O)N2C(=O)[C@H](NC(=O)[C@H](N)c3ccc(O)cc3)[C@@H]2SC1,inconclusive: 0.001 µM [cytotoxic],–
c1cncc(CN2CCC(n3ncc4c(N5CCOCC5)nc(-c5ccc6[nH]ccc6c5)nc43)CC2)c1,"inconclusive: 0.296 µM [cytotoxic, full curve, poor fit]",–
Cn1cc(-c2ccc3nnc(Sc4ccc5ncccc5c4)n3n2)cn1,"inconclusive: 33.2 µM [rising, single point]",–
C=C1CCC2[C@](C)(CO)C(O)CC[C@]2(C)C1CC=C1C(=O)OCC1O (some centres not stated),–,inactive: 138% [at 92.2 µM]
CC(C)[N+]1(C)[C@@H]2CC[C@H]1CC(OC(=O)C(CO)c1ccccc1)C2 (some centres not stated),"inconclusive: 23.5 µM [cytotoxic, partial curve]",–
O=C(O)CCNC(=O)c1ccc(N=Nc2ccc(O)c(C(=O)O)c2)cc1,–,inactive: 132%
Cc1cc(C(C)Nc2ccccc2)c2nc(N3CCOCC3)cc(=O)n2c1 (configuration not stated),"inconclusive: 11.8 µM [cytotoxic, partial curve]",–
COc1cc(NCc2ccc3nc(N)nc(N)c3c2C)cc(OC)c1OC,active: 1.05 µM,–
CCCCc1oc2ccc(NS(C)(=O)=O)cc2c1C(=O)c1ccc(OCCCN(CCCC)CCCC)cc1,active: 16.6 µM,–
Nc1ccn([C@@H]2CS[C@H](CO)O2)c(=O)n1,–,inactive: 117% [at 92.2 µM]
O=C(NC[C@H](O)CO)c1ccncc1Nc1ccc(I)cc1F,"inconclusive: 0.166 µM [cytotoxic, partial curve, poor fit]",–
N#Cc1c(NC(=O)c2cccc3ccccc23)sc2c1CCCC2,active: 0.296 µM,–
CNC(=O)[C@H](CC1=CN=C2C=CCC=C12)NC(=O)[C@@H](CC(=O)NO)CC(C)C,active: 0.118 µM,–
Cc1ccc(S(=O)(=O)NC(=O)NN2CC3CCCC3C2)cc1 (configuration not stated),active: 26.4 µM,–
Cc1cc(OCCCS(C)(=O)=O)cc(C)c1-c1cccc(COc2ccc3c(c2)OC[C@H]3CC(=O)O)c1,–,inactive: 110%
CCc1cncnc1N1CCN(Cc2nc3ccc(C(F)(F)F)cc3[nH]2)CC1,"inconclusive: 7.43 µM [cytotoxic, partial curve, poor fit]",–
COc1c(C)cnc(Cn2cnc3c(Cl)nc(N)nc32)c1C,active: 0.0418 µM,–

# Assay: Quantitative High-Throughput drug screen in 47 multiple myeloma cell lines against the NCATS MIPE library collection: Karpas620_DSMZ cell viability assay (AID 1918959); note: nearly all actives have a fitted effect of over 30% in size
# Conditions: Karpas620 myeloma viability, CellTiter-Glo ATP luminescence, 48 h; viability (% of DMSO): at 45.8 µM (top of the series)
# How it was run: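 We plated 500 myeloma cells per well, pinned in MIPE 4.0 compounds, and incubated for 48 hours at 37C. ATP was then quantified with CellTiter-Glo, with DMSO and media-only wells defining 100% and 0%.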
Structure (SMILES),Potency,viability (% of DMSO)
COc1cc(OC2CCN(C)CC2)ccc1Nc1ncc2c(n1)n(C1CCCC1)c(=O)n2C,active: 23.5 µM,–
O=C(Nc1nnc(-c2ccco2)o1)c1cc(-c2ccccc2)nc2ccccc12,active: 20.9 µM,–
CC(C)[N+]1(C)[C@@H]2CC[C@H]1CC(OC(=O)C(CO)c1ccccc1)C2 (some centres not stated),"inconclusive: 20.9 µM [cytotoxic, partial curve]",–
CC(C)(CO)[C@@H](O)C(=O)NCCC(=O)O,–,inactive: 85.2%
CC(C)(N)c1ccc(-c2nc3ccccc3nc2-c2ccccc2)cc1,active: 10.5 µM,–
Cc1cc(C(C)Nc2ccccc2)c2nc(N3CCOCC3)cc(=O)n2c1 (configuration not stated),"inconclusive: 26.4 µM [cytotoxic, single point]",–
CCCCc1oc2ccc(NS(C)(=O)=O)cc2c1C(=O)c1ccc(OCCCN(CCCC)CCCC)cc1,active: 20.9 µM,–
O=S(=O)(NCCNCC=Cc1ccc(Br)cc1)c1cccc2cnccc12,active: 20.9 µM,–
CN1CCC[C@H]1CCO[C@](C)(c1ccccc1)c1ccc(Cl)cc1,"inconclusive: 37.2 µM [cytotoxic, single point]",–
COc1ccc2c(c1)c(C1=C(c3c[nH]c4ccccc34)C(=O)NC1=O)cn2CCCN(C)C,"inconclusive: 33.2 µM [cytotoxic, single point]",–
Cc1ccc(S(=O)(=O)NC(=O)NN2CC3CCCC3C2)cc1 (configuration not stated),"inconclusive: 33.2 µM [cytotoxic, single point]",–
CCC(C)(C)c1ccc(CC(C)CN2C[C@@H](C)O[C@@H](C)C2)cc1 (some centres not stated),–,inactive: 103%
COc1c(C)cnc(Cn2cnc3c(Cl)nc(N)nc32)c1C,active: 0.209 µM,–

# Quoted from the listing:
# CC(C)(N)c1ccc(-c2nc3ccccc3nc2-c2ccccc2)cc1 – Potency: active: 10.5 µM
# Cc1cc(C(C)Nc2ccccc2)c2nc(N3CCOCC3)cc(=O)n2c1 (configuration not stated) – Potency: inconclusive: 26.4 µM [cytotoxic, single point]
# CN1CCC[C@H]1CCO[C@](C)(c1ccccc1)c1ccc(Cl)cc1 – Potency: inconclusive: 37.2 µM [cytotoxic, single point]
